Test results as given in PMC2955581.
Results are given in words; binding and its absence hold for the method and conditions named. For some assays here: Binding seen in cells or lysates may run through a third protein. Some results given as binding are weak or reduced against the parent protein; the word gives no strength. For some assays here: Where a sequence is shown, tags or fusion partners need not be part of it.

Protein sequences, listed by entry. Tags and fused reporters are not part of them.
UniProt Q8JZQ9: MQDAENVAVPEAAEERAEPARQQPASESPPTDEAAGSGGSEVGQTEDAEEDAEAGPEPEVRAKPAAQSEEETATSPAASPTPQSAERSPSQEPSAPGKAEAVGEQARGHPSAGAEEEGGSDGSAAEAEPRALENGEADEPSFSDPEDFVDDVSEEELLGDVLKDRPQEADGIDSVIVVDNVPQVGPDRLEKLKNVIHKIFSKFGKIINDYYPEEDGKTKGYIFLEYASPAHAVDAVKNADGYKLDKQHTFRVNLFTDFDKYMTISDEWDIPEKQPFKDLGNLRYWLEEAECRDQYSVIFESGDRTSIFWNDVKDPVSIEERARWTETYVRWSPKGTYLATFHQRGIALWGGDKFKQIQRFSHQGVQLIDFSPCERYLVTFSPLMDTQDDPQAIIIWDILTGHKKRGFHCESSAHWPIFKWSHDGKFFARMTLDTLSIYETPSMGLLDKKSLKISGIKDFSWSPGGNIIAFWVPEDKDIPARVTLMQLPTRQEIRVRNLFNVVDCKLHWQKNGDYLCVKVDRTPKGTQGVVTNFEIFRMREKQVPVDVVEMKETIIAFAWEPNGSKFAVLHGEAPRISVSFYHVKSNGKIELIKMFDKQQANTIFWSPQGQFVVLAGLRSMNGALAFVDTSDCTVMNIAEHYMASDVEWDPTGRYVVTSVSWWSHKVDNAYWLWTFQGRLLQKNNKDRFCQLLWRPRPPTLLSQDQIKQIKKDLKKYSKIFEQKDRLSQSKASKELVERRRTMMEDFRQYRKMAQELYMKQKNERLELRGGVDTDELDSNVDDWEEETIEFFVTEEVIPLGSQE
UniProt Q91WK2: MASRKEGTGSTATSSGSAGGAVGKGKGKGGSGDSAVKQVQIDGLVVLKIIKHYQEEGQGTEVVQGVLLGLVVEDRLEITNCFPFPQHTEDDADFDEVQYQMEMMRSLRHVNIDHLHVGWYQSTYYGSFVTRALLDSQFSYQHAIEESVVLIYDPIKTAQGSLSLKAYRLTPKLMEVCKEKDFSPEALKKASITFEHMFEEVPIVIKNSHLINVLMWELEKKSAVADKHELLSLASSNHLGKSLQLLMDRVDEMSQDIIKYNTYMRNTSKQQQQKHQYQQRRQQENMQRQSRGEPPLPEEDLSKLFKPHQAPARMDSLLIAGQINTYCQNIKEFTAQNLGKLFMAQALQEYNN

T1: GAL4BD-CB (full-length human collybistin fused to the GAL4 DNA-binding domain) (human) (UniProt O43307)
T1 sequence: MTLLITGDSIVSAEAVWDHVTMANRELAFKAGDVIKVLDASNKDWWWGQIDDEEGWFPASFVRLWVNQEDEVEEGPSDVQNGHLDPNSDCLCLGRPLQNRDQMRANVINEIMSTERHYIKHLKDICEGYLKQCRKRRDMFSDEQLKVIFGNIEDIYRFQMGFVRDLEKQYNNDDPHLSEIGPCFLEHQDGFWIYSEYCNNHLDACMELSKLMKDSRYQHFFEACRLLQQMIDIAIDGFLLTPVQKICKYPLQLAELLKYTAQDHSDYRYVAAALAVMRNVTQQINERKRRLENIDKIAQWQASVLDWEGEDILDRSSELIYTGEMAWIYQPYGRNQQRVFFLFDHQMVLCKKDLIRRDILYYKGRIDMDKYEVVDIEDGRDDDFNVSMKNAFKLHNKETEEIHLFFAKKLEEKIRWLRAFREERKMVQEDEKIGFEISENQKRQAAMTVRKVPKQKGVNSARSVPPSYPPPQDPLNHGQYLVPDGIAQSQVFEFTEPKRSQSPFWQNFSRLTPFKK

T2: GAL4BD-CB_(SH3-) (human collybistin lacking the N-terminal SH3 domain fused to the GAL4 DNA-binding domain) (human) (UniProt O43307)
T2 sequence: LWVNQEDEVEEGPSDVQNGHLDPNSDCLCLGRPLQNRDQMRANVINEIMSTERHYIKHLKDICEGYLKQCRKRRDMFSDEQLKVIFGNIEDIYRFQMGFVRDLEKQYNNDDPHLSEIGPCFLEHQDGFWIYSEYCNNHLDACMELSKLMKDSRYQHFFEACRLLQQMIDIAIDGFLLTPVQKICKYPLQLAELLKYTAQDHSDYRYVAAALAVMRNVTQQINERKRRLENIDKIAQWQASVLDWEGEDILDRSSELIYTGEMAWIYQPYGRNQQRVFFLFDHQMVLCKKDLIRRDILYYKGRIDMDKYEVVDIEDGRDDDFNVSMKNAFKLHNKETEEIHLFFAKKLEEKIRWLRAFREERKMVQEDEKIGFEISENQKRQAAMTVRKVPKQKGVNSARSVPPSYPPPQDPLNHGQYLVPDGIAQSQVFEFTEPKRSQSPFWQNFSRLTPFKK

T3: Flag-CB (N-terminally Flag-tagged full-length human collybistin) (human) (UniProt O43307)
T3 sequence: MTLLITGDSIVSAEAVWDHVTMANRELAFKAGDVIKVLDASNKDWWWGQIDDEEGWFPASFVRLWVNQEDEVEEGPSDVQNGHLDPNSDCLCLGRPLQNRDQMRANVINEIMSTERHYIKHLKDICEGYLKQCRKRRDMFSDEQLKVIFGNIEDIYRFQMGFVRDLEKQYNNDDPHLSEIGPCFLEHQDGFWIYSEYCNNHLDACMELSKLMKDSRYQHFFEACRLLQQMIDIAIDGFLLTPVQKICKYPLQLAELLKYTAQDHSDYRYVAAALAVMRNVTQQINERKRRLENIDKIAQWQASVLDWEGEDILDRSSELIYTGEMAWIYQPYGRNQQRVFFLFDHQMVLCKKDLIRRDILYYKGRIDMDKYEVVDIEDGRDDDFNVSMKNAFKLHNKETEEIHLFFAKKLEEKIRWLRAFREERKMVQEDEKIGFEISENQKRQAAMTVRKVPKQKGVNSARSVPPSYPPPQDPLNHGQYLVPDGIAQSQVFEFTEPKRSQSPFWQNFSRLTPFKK

T4: Flag-gephyrin (N-terminally Flag-tagged full-length human gephyrin) (human) (UniProt Q9NQX3)
T4 sequence: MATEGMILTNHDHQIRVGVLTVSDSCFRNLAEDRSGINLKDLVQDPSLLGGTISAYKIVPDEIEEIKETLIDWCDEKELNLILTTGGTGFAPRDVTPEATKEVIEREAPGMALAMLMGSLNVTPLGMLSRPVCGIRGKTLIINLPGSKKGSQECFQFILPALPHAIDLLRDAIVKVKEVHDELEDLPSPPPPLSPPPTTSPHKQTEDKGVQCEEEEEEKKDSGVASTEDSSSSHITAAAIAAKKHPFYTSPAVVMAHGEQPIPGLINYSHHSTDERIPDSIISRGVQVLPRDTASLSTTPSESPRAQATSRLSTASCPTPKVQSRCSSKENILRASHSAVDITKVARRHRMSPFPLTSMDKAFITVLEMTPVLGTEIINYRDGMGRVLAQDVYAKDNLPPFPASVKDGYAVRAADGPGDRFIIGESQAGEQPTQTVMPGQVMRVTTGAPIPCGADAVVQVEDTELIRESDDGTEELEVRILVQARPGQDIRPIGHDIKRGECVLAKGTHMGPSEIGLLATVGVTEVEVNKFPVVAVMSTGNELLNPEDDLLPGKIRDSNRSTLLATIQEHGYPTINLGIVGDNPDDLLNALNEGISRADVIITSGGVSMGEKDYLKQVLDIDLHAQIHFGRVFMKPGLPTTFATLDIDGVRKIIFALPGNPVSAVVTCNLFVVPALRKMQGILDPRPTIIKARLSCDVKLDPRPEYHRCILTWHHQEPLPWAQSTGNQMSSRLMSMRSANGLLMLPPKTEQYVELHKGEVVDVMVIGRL


Tests used:
[1] = biological target: T1, GAL4BD-CB (full-length human collybistin fused to the GAL4 DNA-binding domain) (human); test: two-hybrid; Matchmaker GAL4 system 3; GAL4BD baits in pGBKT7, GAL4AD preys; yeast AH109; growth on SD/-Leu/-Trp/-Ade/-His/X-alpha-Gal/5 mM 3-AT, 30°C; library screen and retest by cotransformation
[2] = biological target: T2, GAL4BD-CB_(SH3-) (human collybistin lacking the N-terminal SH3 domain fused to the GAL4 DNA-binding domain) (human); test: as above
[3] = biological target: T3, Flag-CB (N-terminally Flag-tagged full-length human collybistin) (human); test: co-IP; HEK 293T cells cotransfected with Flag- and Myc-tagged proteins; lysis and washes in RIPA buffer; IP with anti-Flag antibody, blot with anti-Myc antibody
[4] = biological target: endogenous eIF3B of mouse brain (mouse (endogenous in mouse brain)) (UniProt Q8JZQ9); test: co-IP; adult mouse whole brain lysate in RIPA buffer; IP of endogenous proteins with anti-eIF3H or anti-eIF3B antibodies, blot with anti-CB or anti-gephyrin antibodies
[5] = biological target: endogenous eIF3H of mouse brain (mouse (endogenous in mouse brain)) (UniProt Q91WK2); test: as above
[6] = biological target: T4, Flag-gephyrin (N-terminally Flag-tagged full-length human gephyrin) (human); test: co-IP; HEK 293T cells cotransfected with Flag- and Myc-tagged proteins; lysis and washes in RIPA buffer; IP with anti-Flag antibody, blot with anti-Myc antibody

Binder | binding [4] | binding [5] | also measured
GAL4AD-gephyrin (full-length human gephyrin fused to the GAL4 activation domain) (protein, UniProt Q9NQX3-2 1-769) MATEGMILTNHDHQIRVGVLTVSDSCFRNLAEDRSGINLKDLVQDPSLLGGTISAYKIVPDEIEEIKETLIDWCDEKELNLILTTGGTGFAPRDVTPEATKEVIEREAPGMALAMLMGSLNVTPLGMLSRPVCGIRGKTLIINLPGSKKGSQECFQFILPALPHAIDLLRDAIVKVKEVHDELEDLPSPPPPLSPPPTTSPHKQTEDKGVQCEEEEEEKKDSGVASTEDSSSSHITAAAIAAKKHPFYTSPAVVMAHGEQPIPGLINYSHHSTDERIPDSIISRGVQVLPRDTASLSTTPSESPRAQATSRLSTASCPTPKVQSRCSSKENILRASHSAVDITKVARRHRMSPFPLTSMDKAFITVLEMTPVLGTEIINYRDGMGRVLAQDVYAKDNLPPFPASVKDGYAVRAADGPGDRFIIGESQAGEQPTQTVMPGQVMRVTTGAPIPCGADAVVQVEDTELIRESDDGTEELEVRILVQARPGQDIRPIGHDIKRGECVLAKGTHMGPSEIGLLATVGVTEVEVNKFPVVAVMSTGNELLNPEDDLLPGKIRDSNRSTLLATIQEHGYPTINLGIVGDNPDDLLNALNEGISRADVIITSGGVSMGEKDYLKQVLDIDLHAQIHFGRVFMKPGLPTTFATLDIDGVRKIIFALPGNPVSAVVTCNLFVVPALRKMQGILDPRPTIIKARLSCDVKLDPRPEYHRCILTWHHQEPLPWAQSTGNQMSSRLMSMRSANGLLMLPPKTEQYVELHKGEVVDVMVIGRL | – | – | binding [1]: binds; binding [2]: binds
Myc-gephyrin (N-terminally Myc-tagged full-length human gephyrin) (protein, UniProt Q9NQX3-2 1-769) MATEGMILTNHDHQIRVGVLTVSDSCFRNLAEDRSGINLKDLVQDPSLLGGTISAYKIVPDEIEEIKETLIDWCDEKELNLILTTGGTGFAPRDVTPEATKEVIEREAPGMALAMLMGSLNVTPLGMLSRPVCGIRGKTLIINLPGSKKGSQECFQFILPALPHAIDLLRDAIVKVKEVHDELEDLPSPPPPLSPPPTTSPHKQTEDKGVQCEEEEEEKKDSGVASTEDSSSSHITAAAIAAKKHPFYTSPAVVMAHGEQPIPGLINYSHHSTDERIPDSIISRGVQVLPRDTASLSTTPSESPRAQATSRLSTASCPTPKVQSRCSSKENILRASHSAVDITKVARRHRMSPFPLTSMDKAFITVLEMTPVLGTEIINYRDGMGRVLAQDVYAKDNLPPFPASVKDGYAVRAADGPGDRFIIGESQAGEQPTQTVMPGQVMRVTTGAPIPCGADAVVQVEDTELIRESDDGTEELEVRILVQARPGQDIRPIGHDIKRGECVLAKGTHMGPSEIGLLATVGVTEVEVNKFPVVAVMSTGNELLNPEDDLLPGKIRDSNRSTLLATIQEHGYPTINLGIVGDNPDDLLNALNEGISRADVIITSGGVSMGEKDYLKQVLDIDLHAQIHFGRVFMKPGLPTTFATLDIDGVRKIIFALPGNPVSAVVTCNLFVVPALRKMQGILDPRPTIIKARLSCDVKLDPRPEYHRCILTWHHQEPLPWAQSTGNQMSSRLMSMRSANGLLMLPPKTEQYVELHKGEVVDVMVIGRL | – | – | binding [3]: binds
Myc-CB (N-terminally Myc-tagged full-length human collybistin) (protein, UniProt O43307 1-516) MTLLITGDSIVSAEAVWDHVTMANRELAFKAGDVIKVLDASNKDWWWGQIDDEEGWFPASFVRLWVNQEDEVEEGPSDVQNGHLDPNSDCLCLGRPLQNRDQMRANVINEIMSTERHYIKHLKDICEGYLKQCRKRRDMFSDEQLKVIFGNIEDIYRFQMGFVRDLEKQYNNDDPHLSEIGPCFLEHQDGFWIYSEYCNNHLDACMELSKLMKDSRYQHFFEACRLLQQMIDIAIDGFLLTPVQKICKYPLQLAELLKYTAQDHSDYRYVAAALAVMRNVTQQINERKRRLENIDKIAQWQASVLDWEGEDILDRSSELIYTGEMAWIYQPYGRNQQRVFFLFDHQMVLCKKDLIRRDILYYKGRIDMDKYEVVDIEDGRDDDFNVSMKNAFKLHNKETEEIHLFFAKKLEEKIRWLRAFREERKMVQEDEKIGFEISENQKRQAAMTVRKVPKQKGVNSARSVPPSYPPPQDPLNHGQYLVPDGIAQSQVFEFTEPKRSQSPFWQNFSRLTPFKK | – | – | binding [6]: binds

Now from value to binder, other results behind:

binding [4] | binding [5] | Binder | also measured
binds weakly | binds | endogenous collybistin (CB) of mouse brain (protein, UniProt Q3UTH8 1-516) MYDLITGDSIVSAEAVWDHVTMANRELAFKAGDVIKVLDASNKDWWWGQIDDEEGWFPASFVRLWVNQEDGVEEGPSDVQNGHLDPNSDCLCLGRPLQNRDQMRANVINEIMSTERHYIKHLKDICEGYLKQCRKRRDMFSDEQLKVIFGNIEDIYRFQMGFVRDLEKQYNNDDPHLSEIGPCFLEHQDGFWIYSEYCNNHLDACMELSKLMKDSRYQHFFEACRLLQQMIDIAIDGFLLTPVQKICKYPLQLAELLKYTAQDHSDYRYVAAALAVMRNVTQQINERKRRLENIDKIAQWQASVLDWEGEDILDRSSELIYTGEMAWIYQPYGRNQQRVFFLFDHQMVLCKKDLIRRDILYYKGRIDMDKYEVIDIEDGRDDDFNVSMKNAFKLHNKETEEVHLFFAKKLEEKIRWLRAFREERKMVQEDEKIGFEISENQKRQAAMTVRKASKQKGVNSARSVPPSYPPPQDPLNQGQYLVPDGIAQSQVFEFTEPKRSQSPFWQNFSRLTPFKK | –
binds | binds | endogenous gephyrin of mouse brain (protein, UniProt Q8BUV3 1-769) MATEGMILTNHDHQIRVGVLTVSDSCFRNLAEDRSGINLKDLVQDPSLLGGTISAYKIVPDEIEEIKETLIDWCDEKELNLILTTGGTGFAPRDVTPEATKEVIEREAPGMALAMLMGSLNVTPLGMLSRPVCGIRGKTLIINLPGSKKGSQECFQFILPALPHAIDLLRDAIVKVKEVHDELEDLPSPPPPLSPPPTTSPHKQTEDKGVQCEEEEEEKKDSGVASTEDSSSSHITAAALAAKIPDSIISRGVQVLPRDTASLSTTPSESPRAQATSRLSTASCPTPKQIRRPDESKGVASRVGSLKARLPSCSSTYSVSEVQSRCSSKENILRASHSAVDITKVARRHRMSPFPLTSMDKAFITVLEMTPVLGTEIINYRDGMGRVLAQDVYAKDNLPPFPASVKDGYAVRAADGPGDRFIIGESQAGEQPTQTVMPGQVMRVTTGAPIPCGADAVVQVEDTELIRESDDGTEELEVRILVQARPGQDIRPIGHDIKRGECVLAKGTHMGPSEIGLLATVGVTEVEVNKFPVVAVMSTGNELLNPEDDLLPGKIRDSNRSTLLATIQEHGYPTINLGIVGDNPDDLLNALNEGISRADVIITSGGVSMGEKDYLKQVLDIDLHAQIHFGRVFMKPGLPTTFATLDIDGVRKIIFALPGNPVSAVVTCNLFVVPALRKMQGILDPRPTIIKARLSCDVKLDPRPEYHRCILTWHHQEPLPWAQSTGNQMSSRLMSMRSANGLLMLPPKTEQYVELHKGEVVDVMVIGRL | –
